# Source: publication PMC9228535, “Antistaphylococcal Activities and ADME-Related Properties of Chlorinated Arylcarbamoylnaphthalenylcarbamates” (Pharmaceuticals, 2022)
# Tested on: THP-1 cells
# Assay: In vitro cytotoxicity assay (WST-1)
# Assay type: cell-based, human
# Conditions: IC50 THP-1 / MIC S. aureus ATCC 29213
# Experimental: Preliminary in vitro cytotoxicity screening of the investigated compounds was performed using human monocytic leukemia THP-1 cells, see Table 2. The ability to inhibit the human cancer cell viability (IC50) of the compounds was compared to camptothecin toxicity (0.16 ± 0.07 μM). […] However, these values are up to two orders of magnitude higher than their significant antistaphyloccocal concentrations. This fact is also taken into account in the calculated selectivity index (SI), Table 2, where for only three compounds the SI is <20, while for the rest of the agents SI is >20, and for some derivatives even 100 and more. Thus, based on all these observations, it can be concluded that all the tested derivatives can be considered as in vitro non-toxic compounds for the subsequent design of new therapeutic agents.
# The human THP-1 cell line (European Collection of Cell Cultures, Salisbury, UK) was cultured in RPMI 1640 medium supplemented with 10% fetal bovine serum, 2% L-glutamine, 1% penicillin, and streptomycin at 37 °C with 5% CO2. Cells were passaged at approximately 1-week intervals. All the tested compounds were prepared and dissolved as mentioned in our previous work.
row,Structure (SMILES),SI (IC50/MIC)
1,"CCNC(=O)Oc1c(C(=O)Nc2cc(Cl)c(Cl)cc2Cl)ccc2ccccc12 [Compound 2, 2-[N-(2,4,5-Trichlorophenyl)carbamoyl]naphthalen-1-yl ethyl carbamate]",156
2,"CCCNC(=O)Oc1c(C(=O)Nc2cc(Cl)c(Cl)cc2Cl)ccc2ccccc12 [Compound 3, 2-[N-(2,4,5-Trichlorophenyl)carbamoyl]naphthalen-1-yl propyl carbamate]",88.1
3,"CCCCNC(=O)Oc1c(C(=O)Nc2cc(Cl)c(Cl)cc2Cl)ccc2ccccc12 [Compound 4, 2-[N-(2,4,5-Trichlorophenyl)carbamoyl]naphthalen-1-yl butyl carbamate]",99.6
4,"CCCCCNC(=O)Oc1c(C(=O)Nc2cc(Cl)c(Cl)cc2Cl)ccc2ccccc12 [Compound 5, 2-[N-(2,4,5-Trichlorophenyl)carbamoyl]naphthalen-1-yl pentyl carbamate]",51.3
5,"CCCCCCNC(=O)Oc1c(C(=O)Nc2cc(Cl)c(Cl)cc2Cl)ccc2ccccc12 [Compound 6, 2-[N-(2,4,5-Trichlorophenyl)carbamoyl]naphthalen-1-yl hexyl carbamate]",25.1
6,"CCCCCCCNC(=O)Oc1c(C(=O)Nc2cc(Cl)c(Cl)cc2Cl)ccc2ccccc12 [Compound 7, 2-[N-(2,4,5-Trichlorophenyl)carbamoyl]naphthalen-1-yl heptyl carbamate]",25.7
7,"CCCCCCCCNC(=O)Oc1c(C(=O)Nc2cc(Cl)c(Cl)cc2Cl)ccc2ccccc12 [Compound 8, 2-[N-(2,4,5-Trichlorophenyl)carbamoyl]naphthalen-1-yl octyl carbamate]",5.5
8,"CC(C)NC(=O)Oc1c(C(=O)Nc2cc(Cl)c(Cl)cc2Cl)ccc2ccccc12 [Compound 9, 2-[N-(2,4,5-Trichlorophenyl)carbamoyl]naphthalen-1-yl isopropyl carbamate]",184
9,"O=C(NC1CCCC1)Oc1c(C(=O)Nc2cc(Cl)c(Cl)cc2Cl)ccc2ccccc12 [Compound 10, 2-[N-(2,4,5-Trichlorophenyl)carbamoyl]naphthalen-1-yl cyclopentyl carbamate]",12.3
10,"O=C(NC1CCCCC1)Oc1c(C(=O)Nc2cc(Cl)c(Cl)cc2Cl)ccc2ccccc12 [Compound 11, 2-[N-(2,4,5-Trichlorophenyl)carbamoyl]naphthalen-1-yl cyclohexyl carbamate]",21.5
11,"O=C(NC1CCCCCC1)Oc1c(C(=O)Nc2cc(Cl)c(Cl)cc2Cl)ccc2ccccc12 [Compound 12, 2-[N-(2,4,5-Trichlorophenyl)carbamoyl]naphthalen-1-yl cycloheptyl carbamate]",6.6
12,"O=C(NCCc1ccccc1)Oc1c(C(=O)Nc2cc(Cl)c(Cl)cc2Cl)ccc2ccccc12 [Compound 13, 2-[N-(2,4,5-Trichlorophenyl)carbamoyl]naphthalen-1-yl 2-phenylethyl carbamate]",44.8
13,"O=C(NCCCCc1ccccc1)Oc1c(C(=O)Nc2cc(Cl)c(Cl)cc2Cl)ccc2ccccc12 [Compound 14, 2-[N-(2,4,5-Trichlorophenyl)carbamoyl]naphthalen-1-yl 4-phenylbutyl carbamate]",23.5
